According to PubChem BioAssay AID2417 (National Center for Advancing Translational Sciences (NCATS), 2010):
Among all 140,000 compounds or so, about 4,300 (3.1%) were called active. The shares of active, inactive and inconclusive entries below differ from those in the screen.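 Rule for the calls: active = readout at or below -70, meaning at least 70% loss of cells showing the perinucleolar compartment, a nuclear body marking cancer cells; inconclusive = readout between -30 and a set limit; inactive = the rest.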

Test: High Content Assay for Compounds that inhibit the Assembly of the Perinucleolar Compartment;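 note: plate controls were DMSO wells for no effect and camptothecin positive control wells for full effect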
Details: PC3M PTB-GFP, PNC prevalence imaging, 16 h; at 10 µM; hits give low values
In short: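 PC3M cells stably expressing PTB-GFP, 750–1000 cells/well, treated 16 h at 37 °C with compound (23 nl of library stock), in duplicate. After paraformaldehyde fixation and Hoechst stain, imaged at 20x; PNC prevalence scored by image analysis.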

| SMILES | activity change (PNC), negative = inhibition |
| --- | --- |
| Nc1nnc(CC(=O)N/N=C/c2ccc(-c3ccccc3)o2)s1 | inconclusive: -35.6% |
| CC1(C)CC(C)(O)N(Cc2ccccc2)C(=S)N1 (stereo not given) | inactive: -28.6% |
| CC(C)Nc1ncnc2c1cnn2-c1ccc(Cl)cc1 | inactive: 33.4% |
| CCCc1ccc(-c2cc(C(=O)NC3=NCCS3)c3ccccc3n2)cc1 | inconclusive: -51.9% |
| Cc1ccc(C(=O)Oc2coc(CSc3nnc(NC(=O)C4CC4)s3)cc2=O)cc1 | inconclusive: -46.1% |
| Clc1ccc(CSc2ncn[nH]2)cc1 | inactive: -21.1% |
| CCN(CC)S(=O)(=O)c1ccc2oc(SCc3ccc(F)cc3)nc2c1 | inconclusive: -51% |
| Cn1c(=O)c2c(nc(CN3CCN(Cc4ccccc4)CC3)n2Cc2ccccc2)n(C)c1=O | inactive: -21.5% |
| CC1CCCN(c2nc3ccsc3c(=O)s2)C1 (stereo not given) | inconclusive: -43.3% |
| CCC(Sc1nc2n[nH]c(C)c2c(=N)n1-c1cccc(Cl)c1C)C(=O)N(CC)CC (stereo not given) | inconclusive: -38.4% |
| C=CCNC(=S)Nc1cccc(NC(=S)NCC=C)c1 | inconclusive: -42.3% |
| Cc1c(NC(=O)c2cccc(NC(=O)c3ccco3)c2)cccc1C(=O)O | inconclusive: -48.9% |
| c1ccc(Oc2cnc3ccccc3n2)cc1 | inactive: 4.79% |
| O=C1C2C(c3ccccc3)C=CC(c3ccccc3)C2C(=O)N1c1cccnc1 (stereo not given) | inconclusive: -50.7% |
| CCn1ncc(/C=N/O)c1C | inconclusive: -48.9% |
| O=C1C(C23CC4CC(CC(C4)C2)C3)C(=O)N(c2ccccc2)N1c1ccccc1 | inconclusive: -57.1% |
| O=c1c2c(-c3cccs3)csc2ncn1-c1ccccc1 | inconclusive: -45.8% |
| COc1cc(-c2nnc(SCc3c(F)cccc3Cl)o2)cc(OC)c1OC | inconclusive: -52.1% |
| O=c1[nH]c(-c2ccccc2F)nc2c1sc(=S)n2Cc1ccccc1 | inactive: 12.1% |
| CCOc1ccc(/C(C)=N/N2C(=O)C(CC(=O)Nc3ccc(OC)cc3[N+](=O)[O-])SC2=Nc2cccc(C)c2C)cc1 (stereo not given) | inactive: 1.03% |
| CC1(C)CC(=O)C2=C(C1)NC(Nc1nc3ccccc3o1)=NC21CCCC1 | inconclusive: -44.4% |
| CCCN1CNC(=S)N(Cc2ccccc2)C1 | inactive: 33.5% |
| O=C(NC1CCCCC1)N1CCCC1 | inactive: -25.3% |

| SMILES | activity change (PNC), negative = inhibition |
| --- | --- |
| CCOC(=O)C1CCCN(Cc2nc(N)nc(Nc3ccc(Cl)cc3)n2)C1 (stereo not given) | inconclusive: -42.8% |
| CCN1CCN(C(=O)c2cc3cc4cc(OC)ccc4nc3s2)CC1 | inconclusive: -34.8% |
| COc1ccc(CNC(=O)c2ccc(=O)oc2)cc1OC | inconclusive: -74.1% |
| c1csc(-c2cn3c(n2)SCC3)c1 | inconclusive: -75.7% |
| COc1cc2c(cc1NC(=O)c1cccc(S(=O)(=O)N(C)C)c1)oc1ccccc12 | active: -107% |
| Cc1ccc(-n2c(N)c(C(=O)Nc3c(C)n(C)n(-c4ccccc4)c3=O)c3nc4ccccc4nc32)cc1 | inconclusive: -55.4% |
| CCc1cccc(CC)c1NC(=S)N1CCn2cccc2C1c1cccnc1 (stereo not given) | inconclusive: -53.5% |
| O=C(CS(=O)CC(=O)Nc1cccc2c1CCCC2)Nc1ccc(F)cc1 (stereo not given) | inconclusive: -59.5% |
| CCc1cccc(NC2c3ccccc3C(=O)N2c2ccc(C)cn2)c1 (stereo not given) | inactive: -10.4% |
| C=CCN1C(=O)/C(=C/c2ccc(O)c(OC)c2)S/C1=N/c1nccs1 | inactive: -5.47% |
| Cc1ccc(-n2c(C)cc(/C=N/NC(N)=S)c2C)cc1 | inactive: -28.6% |
| C=CCSc1nnc(-c2cc3c(s2)-c2ccccc2CC3)o1 | inconclusive: -33.1% |
| O=C(NCc1ccccc1)C1CC(=O)N(c2ccc(OCC(=O)N3CCCC3)cc2)C1 (stereo not given) | inactive: 64.9% |
| CCC(C)(C(=O)NC1CCCCC1)N(C(=O)Cc1cccs1)c1ccccc1 (stereo not given) | inactive: -6.27% |
| CCOCCCNc1nc2c(C)cccn2c(=O)c1/C=C1\SC(=S)N(CC(C)C)C1=O | inactive: 50.9% |
| COc1ccc(NC(=O)CNS(=O)(=O)c2ccccc2)cc1Cl | inconclusive: -59.3% |
| N#CC1=C(N)N(c2ncn[nH]2)C2=C(C(=O)CCC2)C1c1ccc(F)cc1 (stereo not given) | inconclusive: -61% |
| C=CCn1c(SCC(=O)NC2CCCCC2)nnc1-c1sc(N)nc1C | inconclusive: -41% |
| COc1ccc(C(NC(=O)C(C)(C)C)NC(=O)C(C)(C)C)cc1 | inconclusive: -48.4% |
| COc1ccc(NC(=O)C2CCCCN2CC(=O)OCc2ccccc2)cc1OC (stereo not given) | inconclusive: -33.7% |
| Cc1nn(C(C)C(=O)Nc2sc3c(c2C#N)CCCC3)c(C)c1[N+](=O)[O-] (stereo not given) | inactive: 69.6% |
| CCOC(=O)c1cnc(SC2CC(=O)N(c3ccc(OC)c(OC)c3)C2=O)nc1N (stereo not given) | inactive: -3.52% |
| COc1ccc2[nH]c(=O)c(CN(CCc3ccccc3)Cc3nnnn3CC3CCCO3)cc2c1 (stereo not given) | inconclusive: -41.9% |

As a short view, some entries already given:

| SMILES | activity change (PNC), negative = inhibition |
| --- | --- |
| CCCc1ccc(-c2cc(C(=O)NC3=NCCS3)c3ccccc3n2)cc1 | inconclusive: -51.9% |
| Cc1ccc(C(=O)Oc2coc(CSc3nnc(NC(=O)C4CC4)s3)cc2=O)cc1 | inconclusive: -46.1% |
| Clc1ccc(CSc2ncn[nH]2)cc1 | inactive: -21.1% |
| CCN(CC)S(=O)(=O)c1ccc2oc(SCc3ccc(F)cc3)nc2c1 | inconclusive: -51% |

Arranged by number of heavy atoms (falling): some entries from above.

| SMILES | activity change (PNC), negative = inhibition |
| --- | --- |
| O=C1C2C(c3ccccc3)C=CC(c3ccccc3)C2C(=O)N1c1cccnc1 (stereo not given) | inconclusive: -50.7% |
| C=CCN1C(=O)/C(=C/c2ccc(O)c(OC)c2)S/C1=N/c1nccs1 | inactive: -5.47% |
| C=CCNC(=S)Nc1cccc(NC(=S)NCC=C)c1 | inconclusive: -42.3% |

Further records follow.

| SMILES | activity change (PNC), negative = inhibition |
| --- | --- |
| Cc1ccc(S(=O)(=O)NCCN=C(CN2CCOCC2)NS(=O)(=O)c2ccc(C)cc2)cc1 | inconclusive: -76.6% |
| CN(C)S(=O)(=O)c1ccc(C(=O)Nc2nc(-c3cccs3)cs2)cc1 | inactive: 30.3% |
| Cn1c(N=NC(=O)c2ccccc2)c(O)c2ccccc21 | active: -86.1% |
| Cc1ccc(-c2nc3cccnc3s2)cc1NS(=O)(=O)c1ccc2c(c1)OCCO2 | active: -108% |
| COc1ccc(C(=O)NC2(C(F)(F)F)N=C3SCCN3C2=O)cc1 (stereo not given) | inconclusive: -41.9% |
| Cc1cccc(NC(=O)c2cc(-c3ccc(C)s3)nc3ccccc23)n1 | inconclusive: -70.6% |
| Cc1cc(Nc2ccc3c(c2)OCCO3)n2nc(C)nc2n1 | inconclusive: -53.1% |
| COCc1cc(C)nc(OCC(=O)N/N=C/c2ccc(OC)c(OC)c2)c1C#N | inconclusive: -55.4% |
| O=C(O)COc1ccc(=O)n(-c2ccccc2)n1 | inactive: 48.4% |
| O=C(COc1nc2ccccc2nc1N1CCOCC1)NCC(F)(F)F | inconclusive: -37.1% |
| COc1ccc(C)cc1NC(=O)COCC(=O)O | inconclusive: -43.3% |
| COc1ccc(Cl)cc1NC(=O)Cn1c(=O)n2nc(C)nc2c2ccccc21 | inconclusive: -30.4% |
| COc1ccc(C/C(C)=N/NC(=O)c2cccnc2)cc1 | inactive: 3.12% |
| CCCCN(C(=O)NC(=O)Nc1c(C)cc(C)cc1C)S(C)(=O)=O | inconclusive: -31.4% |
| CC(C)OC(=O)c1cn(-c2ccccc2)nc1-c1ccco1 | inconclusive: -46% |
| Cc1[nH]n(-c2ccccc2)c(=S)c1C=Nc1cccc([N+](=O)[O-])c1 | inactive: -22.3% |
| O=C(OCc1csc(-c2ccccc2)n1)c1cccs1 | inconclusive: -63.8% |
| O=C(/C=C/c1ccc(F)cc1)NCC1(c2ccccc2)CCOCC1 | inconclusive: -73.6% |
| Cc1cc(=O)oc2cc(OCC(=O)N3c4ccccc4CC3C)ccc12 (stereo not given) | active: -85% |
| Cc1cc(Oc2ccccc2)nc(N2CCOCC2)n1 | inactive: 31.1% |
| O=C(O)CSCCC(=O)Nc1ccc(F)cc1 | inactive: -2.68% |
| CC1=C(C(=O)OCc2ccccc2)C(c2ccccc2)NC(=O)N1CCCCCC(=O)O (stereo not given) | active: -80.2% |
| CC1CCN(S(=O)(=O)c2ccc3c(c2)C(=NO)c2cc(S(=O)(=O)N4CCC(C)CC4)ccc2-3)CC1 | inactive: 11.1% |

| SMILES | activity change (PNC), negative = inhibition |
| --- | --- |
| CCOC(=O)c1cnn(-c2nc(SC)nc3sc4c(c23)CCCC4)c1N | inactive: 35% |
| c1ccc2c(c1)nnn2Cc1nnc2sc(-c3ccncc3)nn12 | inactive: -14.4% |
| O=C1c2ccccc2C(=O)N1CCCc1nc(-c2ccncc2)no1 | inconclusive: -32.8% |
| CCC(=O)N1CCc2cc(S(=O)(=O)NC(C(=O)NC(C)c3ccccc3)C(C)C)ccc21 (stereo not given) | inconclusive: -36.1% |
| Nc1nc(N)c2nc(-c3ccccc3)c(N)nc2n1 | inactive: 26.3% |
| CCOc1ccc(NC(=O)COC(=O)c2cccnc2)cc1 | inconclusive: -54.4% |
| COc1ccc(N(C(C)C(=O)NC2CCCCCC2)S(C)(=O)=O)cc1 (stereo not given) | inconclusive: -50.5% |
| Cc1ccc(C(OCCN(C)C)c2cccc(C(F)(F)F)c2)cc1 (stereo not given) | inactive: -21.1% |
| CCn1c(-c2ccc(F)cc2)n[nH]c1=S | inactive: 14.2% |
| O=C1CC(N2CCC(c3nc4ccccc4s3)CC2)C(=O)N1 (stereo not given) | inconclusive: -59.3% |
| N#Cc1cnc(SCC(=O)NNC(=O)COc2cccc3ccccc23)nc1N | inconclusive: -31.3% |
| CCOCCCn1c(=S)[nH]c2cc(C(=O)N3CCC(C(N)=O)CC3)ccc2c1=O | inconclusive: -42.5% |
| CCC(=O)NC(Nc1cccc(C)n1)(C(F)(F)F)C(F)(F)F | inconclusive: -53.9% |
| O=C(COc1ccc(N2CC(C(=O)O)CC2=O)cc1)Nc1cccc(C(F)(F)F)c1 (stereo not given) | inconclusive: -44.6% |
| COc1ccc(-n2c(Cc3cccn3C)nnc2SCC(=O)Nc2ccc(F)cc2)cc1 | inactive: 13.7% |
| CCC(CC)NC(=O)/C=C/c1ccccc1Cl | inconclusive: -33.7% |
| CN(CC(=O)Nc1nc2ccccc2s1)S(=O)(=O)c1ccc(Br)cc1 | inconclusive: -54.3% |
| Cc1nc2ccccc2c(=O)n1NC(=O)/C=C/c1ccccc1 | inconclusive: -74.5% |
| Cc1ccc(-c2noc(CSc3nnc(-c4ccncc4)n3-c3ccc(F)cc3)n2)cc1 | inconclusive: -51.2% |
| N/C(=N\OC(=O)Cc1ccccc1)c1ccc([N+](=O)[O-])cc1 | inconclusive: -46.4% |
| O=C(CSc1nc2ccccc2c(=O)n1-c1cccc(C(F)(F)F)c1)NC1CC1 | inconclusive: -34.2% |
